For part of these data: One purity is given for all peptides; the source may state it once. No end group written: not given here.
How the values were obtained:
[1] = general procedure: Fmoc solid-phase peptide synthesis; Rink amide resin; HBTU/HOBt/DIPEA; settings: whole synthesis, scale 165 μmol
[2] = general procedure: Fmoc solid-phase peptide synthesis; Fmoc-protected Rink Amide NovaGel resin (0.7 mmol/g); Fmoc-protected Wang NovaGel resin (0.1 mmol/g); HBTU/HOBt/DIPEA; settings: whole synthesis
[3] = general procedure: Fmoc solid-phase peptide synthesis; Wang resin; HBTU/HOBt/DIPEA; settings: whole synthesis; for isolated yield: on resin loading

| Substance | isolated yield ([1]; on resin loading) [%] | isolated mass [1] [mg] | final HPLC purity ([2]; 220.8 nm) [%] | final HPLC purity ([2]; 220 nm) [%] | isolated yield ([3]; scale 50 μmol) [%] | isolated mass ([3]; scale 50 μmol) [mg] | isolated yield ([3]; scale 16 μmol) [%] | isolated mass ([3]; scale 16 μmol) [mg] |
| --- | --- | --- | --- | --- | --- | --- | --- | --- |
| CYIQNCPKG (cysteine pairing not given here) | 8 | 21.1 | >95 |  |  |  |  |  |
| Asp-Arg-Val-Tyr-Ile-His-Pro-Phe |  |  |  | >95 | 47 | 41.4 |  |  |
| Gln-Arg-Pro-Arg-Leu-Ser-His-Lys-Gly-Pro-Met-Pro-Phe |  |  |  | >95 |  |  | 47.7 | 18.9 |
